Assay results: PubChem BioAssay AID485314 (National Center for Advancing Translational Sciences (NCATS), 2010)
The campaign covered roughly 340,000 compounds. About 4,500 (1.3%) were called active. The shares of active, inactive and inconclusive entries below differ from those in the screen. Calls follow the shape of the dose curve; as a rule, active = well fitted inhibition curve with a large enough effect; inconclusive = small, poorly fitted or top-dose-only effect, or another doubt; inactive = no such curve, though single readings can be large or run the other way. Potencies beside an inconclusive call are fits to weak or partial responses and may not hold up.

What follows are compounds tested against DNA polymerase beta (Homo sapiens) (UniProt P06746) (assay: qHTS Assay for Inhibitors of DNA Polymerase Beta). Details: Pol beta primer extension/strand displacement, fluorescence kinetic; activity change, negative = inhibition: at 114 µM (top of the series).
Procedure, shortened: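 Values derive from four-parameter Hill fits of normalized kinetic data: reads at 0 and 10 min following addition of 50 nM substrate to 10 nM Pol beta preincubated 15 min with compound.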
% is scaled to controls: 0 for no effect and ±100 for the full control effect; potency is read from the fitted curve at half-maximal effect.

Structure (SMILES) | Potency | activity change, negative = inhibition
CCOc1ccccc1N1CCN(S(=O)(=O)c2ccc3c4c(cccc24)C(=O)N3)CC1 | inconclusive: 15.8 µM [inhibitor, full curve] | –
COc1ccc(-c2nc(CN3CCCCC3c3cccnc3)c(C)o2)c(F)c1 (stereo not given) | inconclusive: 0.631 µM [inhibitor, partial curve, poor fit] | –
CC(=O)Nc1ccc(S(=O)(=O)N/N=C/c2ccc(C)o2)cc1 | inconclusive: 11.2 µM [inhibitor, full curve] | –
O=C1C(=O)N(CCO)C(c2cccc(F)c2)/C1=C(\O)c1ccc(Cl)cc1 (stereo not given) | inactive | –
COc1cc(-c2nc(CN3CCN(CC(C)C)C(=O)[C@@H]3C)c(C)o2)ccc1F | inconclusive: 89.1 µM [inhibitor, single point] | –
O=S(=O)(NCC1CCCO1)c1ccc(S(=O)(=O)N(Cc2ccc(F)cc2)Cc2ccccn2)cc1 (stereo not given) | inactive | –
Cc1c(CCC(=O)NCCCCCC(=O)O)c(=O)oc2cc3occ(-c4ccccc4)c3cc12 | – | inconclusive: -130% [inhibitor]
Cc1ccc(S(=O)(=O)N2CCCCC2)cc1C(=O)Nc1ccc(S(=O)(=O)Nc2ncccn2)cc1 | inconclusive: 17.8 µM [inhibitor, full curve, poor fit] | –
Cc1cccc(NC(=S)NCc2ccc3c(c2)cc(C)n3C)c1C | inconclusive: 89.1 µM [inhibitor, single point] | –
CCN(C(=O)C(C)N1C(=O)/C(=C/c2ccco2)SC1=S)C1CCS(=O)(=O)C1 (stereo not given) | active: 11.2 µM | –
COc1ccc(-c2nc(SCCOc3cc(C)ccc3C(C)C)n3[nH]c(=O)cc3n2)cc1 | inactive | –
CC12CN3CC(C)(CN(C1)C3c1ccc3c(c1)OCO3)C2 (stereo not given) | inconclusive: 39.8 µM [inhibitor, single point] | –
O=C(CSc1nc(-c2ccccc2)no1)N1CCN(c2ccc(F)cc2)CC1 | inconclusive: 79.4 µM [inhibitor, single point] | –
CCc1cc[n+](C2=C([O-])c3ccccc3C(=O)/C2=N\S(=O)(=O)c2cccs2)cc1 | inconclusive: 39.8 µM [inhibitor, full curve] | –
CCc1ccc(S(=O)(=O)Nc2cccc(-c3ccc4nncn4n3)c2)s1 | inconclusive: 14.1 µM [inhibitor, full curve, poor fit] | –
CCOc1cccc(=O)c2c(C)n(CC(=O)c3ccccc3)c(C)c12 | inconclusive: 0.708 µM [inhibitor, full curve, poor fit] | –
COc1ccc(N(C(=O)c2snc(C(N)=O)c2N)C(C(=O)NC2CCCC2)c2cccs2)cc1OC (stereo not given) | inconclusive: 44.7 µM [inhibitor, partial curve] | –
O=C(Cc1cccs1)Nc1cccc([N+](=O)[O-])c1 | active: 25.1 µM | –
N/C(=N\OC(=O)/C=C/c1ccccc1Cl)c1ccccn1 | inconclusive: 89.1 µM [inhibitor, single point] | –
O=C(Nc1ccc(F)cc1)C1C(c2ccccc2)C1(Cl)Cl (stereo not given) | inactive | –
Clc1ccc(-c2noc3ncnc(N4CCCCC4)c23)cc1 | inactive | –
COc1ccc(S(=O)(=O)NCCSCc2ccco2)cc1 | inconclusive: 20 µM [inhibitor, partial curve] | –
O=C(NCC(c1ccco1)S(=O)(=O)c1cccs1)c1ccc(C(F)(F)F)cc1 (stereo not given) | inactive | –

Structure (SMILES) | Potency | activity change, negative = inhibition
CCc1ccc(Cn2nnc(C(=O)NCc3ccccc3OC)c2N)cc1 | inconclusive: 22.4 µM [inhibitor, full curve] | –
Nc1nnc(CC(=O)N/N=C/c2ccc(-c3ccc(Cl)cc3Cl)o2)s1 | – | inconclusive: -41.4% [inhibitor]
COc1cccc(-n2c(SCc3cc(=O)oc4cc(O)c(O)cc34)nc3ccccc3c2=O)c1 | active: 3.16 µM | –
CCOc1ccc(C(CC(=O)Nc2ccc(C(=O)OC)cc2)N2Cc3ccccc3C2=O)cc1OC (stereo not given) | inactive | –
CCCCCC(=O)NNC(=O)c1ccc(-c2ccccc2)cc1 | active: 39.8 µM | –
CCOC(=O)Cn1c(=O)c2c(nc(Br)n2Cc2ccc(Cl)cc2)n(C)c1=O | inconclusive: 39.8 µM [inhibitor, single point] | –
O=C(OCC1OC(n2ncc(=O)[nH]c2=O)C(OC(=O)c2ccccc2)C1OC(=O)c1ccccc1)c1ccccc1 (stereo not given) | inconclusive: 79.4 µM [inhibitor, single point] | –
Cc1cc(C)c(C#N)c(Sc2ccccc2N)n1 | inconclusive: 1 µM [inhibitor, full curve, poor fit] | –
COc1cccc(CNC(=O)Cn2cc3c(n2)CCCC3)c1 | inconclusive: 89.1 µM [inhibitor, single point] | –
N#C/C(=C\c1ccc([N+](=O)[O-])o1)C(=O)Nc1ccc(F)cc1 | active: 39.8 µM | –
CC(=O)Nc1ccc(NC(=O)CN2CCN(c3cccc(C(F)(F)F)c3)CC2)cc1 | inconclusive: 7.08 µM [inhibitor, full curve] | –
CCc1ccccc1NC(=O)C1CCCN1S(=O)(=O)c1ccc(-c2ccc(=O)[nH]n2)s1 (stereo not given) | inactive | –
CSc1ccc(-c2sc(Nc3ccccc3)n[n+]2-c2ccccc2)cc1 | inconclusive: 17.8 µM [inhibitor, full curve] | –
CCOc1ccc2ccccc2c1/C=N/NC(=O)CNC(=O)Cc1ccccc1 | inconclusive: 25.1 µM [inhibitor, full curve] | –
O=C1c2ccccc2NC(c2cccc(F)c2)N1Cc1ccccc1 (stereo not given) | inactive | –
CN(C)c1ccc(NC(=O)C2(c3cccs3)CCOCC2)cc1 | inactive | –
Cc1ccccc1N=Nc1ccc(O)c2ncccc12 | inactive | –
CCOc1ccc(CCNC(=O)CCSCc2cccc(Cl)c2)cc1OCC | inactive | –
COc1ccc(OC)c(NC(=O)c2cnc3n(c2=O)CCS3)c1 | inconclusive: 8.91 µM [inhibitor, full curve, poor fit] | –
CC(NC(=O)c1ccco1)C1COc2ccccc2O1 (stereo not given) | inconclusive: 35.5 µM [inhibitor, full curve, poor fit] | –
COc1cc(/C=C2/C(=N)N3C=CSC3=NC2=O)ccc1OCCCOc1ccccc1C | inactive | –
CCn1c(SCC(=O)OC)nc2sc3c(c2c1=O)CCC3 | active: 12.6 µM | –

Reformatted with tabs: part of the list above
Structure (SMILES)	Potency	activity change, negative = inhibition
COc1cccc(-n2c(SCc3cc(=O)oc4cc(O)c(O)cc34)nc3ccccc3c2=O)c1	active: 3.16 µM	–
CCCCCC(=O)NNC(=O)c1ccc(-c2ccccc2)cc1	active: 39.8 µM	–
COc1cc(/C=C2/C(=N)N3C=CSC3=NC2=O)ccc1OCCCOc1ccccc1C	inactive	–
